For experiment [1], the target named is T1, cynomolgus 5T4 on transfected CHO cells (Macaca mulatta (cynomolgus)) (UniProt F7CT46).
T1 sequence: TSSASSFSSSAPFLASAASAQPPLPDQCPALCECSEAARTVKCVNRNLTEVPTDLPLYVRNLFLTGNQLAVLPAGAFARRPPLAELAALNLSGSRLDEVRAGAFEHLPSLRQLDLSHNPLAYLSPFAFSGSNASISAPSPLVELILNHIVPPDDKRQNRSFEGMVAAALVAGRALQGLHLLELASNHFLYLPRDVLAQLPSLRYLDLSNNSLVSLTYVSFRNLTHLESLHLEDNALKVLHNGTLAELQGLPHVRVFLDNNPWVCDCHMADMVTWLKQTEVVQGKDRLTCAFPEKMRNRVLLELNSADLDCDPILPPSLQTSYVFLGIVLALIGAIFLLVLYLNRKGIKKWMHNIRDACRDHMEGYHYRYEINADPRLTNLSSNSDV
The experiment in a line: flow cytometry, cynomolgus 5T4-transfected CHO cells.

Experiment [2] deals with T1, cynomolgus 5T4 on transfected CHO cells (Macaca mulatta (cynomolgus)). Briefly: flow cytometry on CHO cells transfected with cynomolgus 5T4, anti-IgG(Fc)-PE, MFI normalised per antibody.

These are yes or no findings as the source states them, for the method shown. Some binding calls cover weakened binding; strength is not graded here.

B1: 1206/1207 (antibody, V domains shown)
VH: EVQLLESGGGLVQPGGSLRLSCAASGFTFSGSSMSWVRQAPGKGLEWVSSIYYSGSGTYYADSVKGRFTISRDNSKNTLYLQMNSLRAEDTAVYYCARYGRNVHPYNLDYWGQGTLVTVSS
VL: DIQMTQSPSSLSASVGDRVTITCRASQSISSYLNWYQQKPGKAPKLLIYAASSLQSGVPSRFSGSGSGTDFTLTISSLQPEDFATYYCQQGYYYLPTFGQGTKLEIK
Regarding B1, the binding entry in experiment [1] and in experiment [2] was “binds” in each case.

B2: 1212/1213 (antibody, V domains shown)
VH: EVQLLESGGGLVQPGGSLRLSCAASGFTFSSYAMSWVRQAPGKGLEWVSYISSYGGYTSYADSVKGRFTISRDNSKNTLYLQMNSLRAEDTAVYYCARYHSGVLDYWGQGTLVTVSS
VL: DIQMTQSPSSLSASVGDRVTITCRASQSISSYLNWYQQKPGKAPKLLIYAASSLQSGVPSRFSGSGSGTDFTLTISSLQPEDFATYYCQQYYYHYLLTFGQGTKLEIK
On to B2, for which the binding entry in experiment [1] and in experiment [2] was “binds” each time.

Values taken from patent US20190169308A1.
